Chains of the proteins cited; added tags and fusions are not shown. Residues count along the entry.
UniProt P08962, 2-238: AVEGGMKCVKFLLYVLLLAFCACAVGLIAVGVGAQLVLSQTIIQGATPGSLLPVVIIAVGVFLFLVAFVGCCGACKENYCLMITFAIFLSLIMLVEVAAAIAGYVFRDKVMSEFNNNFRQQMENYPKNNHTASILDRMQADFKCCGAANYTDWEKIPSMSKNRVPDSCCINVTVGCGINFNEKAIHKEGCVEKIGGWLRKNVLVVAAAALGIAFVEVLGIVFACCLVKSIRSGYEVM

In publication PMC12464105:

Biological target: CD63 on extracellular vesicles (UniProt P08962)
Experiment: fluorescence strand displacement on streptavidin magnetic beads
Details: EVs 3.5*10^4 particles/mL, Blocker released on EV binding; 3' biotin on aptamer; Aptamer/Blocker annealed in PBS (95 C 5 min, cooled); EVs incubated with Apt63 beads 1 h at 37 C; pH and binding buffer composition not given; protein on the cell surface

“ATATACACCCCACCTCGCTCCCGTGACACTAATGCTATTTTTT / TGGGGTGTATATTAATACGACTCACTATAGGG [CD63 aptamer/Blocker (Apt63)]”: binds.

Construct, isoform or probe ends are uncertain for at least one entry. Results from cells or extracts need not show a direct contact. At least one verdict was read from the data and is not stated in words by the source.
